Reference: article PMC11750622, “Structural insights into translocation and tailored synthesis of hyaluronan” (Nature Structural & Molecular Biology, 2024)
These are yes or no findings as the source states them, for the method shown.

Molecular target: T1, Xenopus laevis HAS isoform 1 (Xenopus laevis, UniProt P13563)
T1 construct: also called XlHAS1; DG42
Assay: SEC + cryo-EM structure; purified XlHAS1 on Superdex200 in GDN detergent (20 mM Tris-HCl pH 7.8, 150 mM NaCl, 0.02% GDN); cryo-EM of the XlHAS1-Fab complex; both purified

B1: Xenopus laevis HAS isoform 1 (enzyme, UniProt P13563 1-588)
chain: MKEKAAETMEIPEGIPKDLEPKHPTLWRIIYYSFGVVLLATITAAYVAEFQVLKHEAILFSLGLYGLAMLLHLMMQSLFAFLEIRRVNKSELPCSFKKTVALTIAGYQENPEYLIKCLESCKYVKYPKDKLKIILVIDGNTEDDAYMMEMFKDVFHGEDVGTYVWKGNYHTVKKPEETNKGSCPEVSKPLNEDEGINMVEELVRNKRCVCIMQQWGGKREVMYTAFQAIGTSVDYVQVCDSDTKLDELATVEMVKVLESNDMYGAVGGDVRILNPYDSFISFMSSLRYWMAFNVERACQSYFDCVSCISGPLGMYRNNILQVFLEAWYRQKFLGTYCTLGDDRHLTNRVLSMGYRTKYTHKSRAFSETPSLYLRWLNQQTRWTKSYFREWLYNAQWWHKHHIWMTYESVVSFIFPFFITATVIRLIYAGTIWNVVWLLLCIQIMSLFKSIYACWLRGNFIMLLMSLYSMLYMTGLLPSKYFALLTLNKTGWGTSGRKKIVGNYMPILPLSIWAAVLCGGVGYSIYMDCQNDWSTPEKQKEMYHLLYGCVGYVMYWVIMAVMYWVWVKRCCRKRSQTVTLVHDIPDMCV
With B1 the binding was “no binding”.
